Inconclusive results, whose numbers are uncertain, are shown with a selection of clear calls. Potencies beside an inconclusive call are fits to weak or partial responses and may not hold up. Calls of active or inactive are those of the source. Calls come from the whole dose curve; as a rule, active = well fitted cell-killing curve with a large enough effect; inconclusive = small, poorly fitted or top-dose-only effect, or effect the other way; inactive = no such curve, though single readings can be large or run the other way.
Test: Quantitative High-Throughput drug screen in 47 multiple myeloma cell lines against the NCATS MIPE library collection: OCIMY5_PLB cell viability assay (AID 1918988); note: nearly all actives have a fitted effect of over 65% in size;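 for viability, % of control: 100% = DMSO-treated wells and 0% = wells with media alone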
Conditions: OCI-MY5 myeloma viability, ATP luminescence, 48 h; viability, % of control: at 45.8 µM (top of the series)
Method in brief: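 qHTS format: cells plated (500/well), pin-dosed with MIPE 4.0 compounds, kept 48 h at 37 °C. Readout was CellTiter-Glo luminescence, median RLU.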
Potency is the fitted concentration of half-maximal effect.

| SMILES | Potency | viability, % of control |
| --- | --- | --- |
| Cc1oc(=O)oc1CN1CCN(c2cc3c(cc2F)c(=O)c(C(=O)O)c2n3C(C)S2)CC1 (centres undefined) | inconclusive: 16.6 µM [cytotoxic, partial curve, poor fit] |  |
| COc1cc(CNC(=O)CCCCC=CC(C)C)ccc1O |  | inactive: 137% |
| Nc1cccc(S(=O)(=O)N2CCCN(S(=O)(=O)c3ccc4c(c3)OCCO4)CC2)c1 | inconclusive: 37.2 µM [cytotoxic, single point] |  |
| CCn1c(-c2nonc2N)nc2c(C#CC(C)(C)O)ncc(OC[C@H]3CCCNC3)c21 | inconclusive: 3.72 µM [cytotoxic, partial curve, poor fit] |  |
| COc1cc2c(c(OC)c1OC)-c1ccc(OC)c(=O)cc1[C@@H](NC(C)=O)CC2 | inconclusive: 0.0264 µM [cytotoxic, full curve] |  |
| CCC(=O)N1CCN(c2ccc(-n3c(=O)ccc4cnc5ccc(-c6cnc7ccccc7c6)cc5c43)cc2C(F)(F)F)CC1 | inconclusive: 3.72 µM [cytotoxic, full curve, poor fit] |  |
| CCn1c(=O)c2c(nc(C=Cc3ccc(OC)c(OC)c3)n2C)n(CC)c1=O | inconclusive: 11.8 µM [cytotoxic, full curve, poor fit] |  |
| CC(C)(O)CCc1ccc(OCc2cc(-c3cccc(OC(F)F)c3)c3ncccc3c2)cc1 | inconclusive: 5.26 µM [rising, partial curve, poor fit] |  |
| N#CC(c1ccc(Cl)cc1)c1c(Cl)cc(-n2ncc(=O)[nH]c2=O)cc1Cl (centres undefined) | inconclusive: 33.2 µM [cytotoxic, partial curve, poor fit] |  |

Fetched by structure from above, two records:

| SMILES | Potency | viability, % of control |
| --- | --- | --- |
| Nc1cccc(S(=O)(=O)N2CCCN(S(=O)(=O)c3ccc4c(c3)OCCO4)CC2)c1 | inconclusive: 37.2 µM [cytotoxic, single point] |  |
| CC(C)(O)CCc1ccc(OCc2cc(-c3cccc(OC(F)F)c3)c3ncccc3c2)cc1 | inconclusive: 5.26 µM [rising, partial curve, poor fit] |  |

From PubChem BioAssay (NCATS)
